These are yes or no findings as the source states them, for the method shown. Some binding calls cover weakened binding; strength is not graded here.
Target: C1q (UniProt P02745)
Experiment: C1q binding ELISA: protein coated on the plate and titrated, 2 µg/mL C1q added, anti-C1q-HRP, OD450

By UniProt entry, the sequences of proteins in these tests, tags left out. Where a name states a change or a piece, a line headed by the entry shows the natural chain unless it says otherwise.
UniProt P02745: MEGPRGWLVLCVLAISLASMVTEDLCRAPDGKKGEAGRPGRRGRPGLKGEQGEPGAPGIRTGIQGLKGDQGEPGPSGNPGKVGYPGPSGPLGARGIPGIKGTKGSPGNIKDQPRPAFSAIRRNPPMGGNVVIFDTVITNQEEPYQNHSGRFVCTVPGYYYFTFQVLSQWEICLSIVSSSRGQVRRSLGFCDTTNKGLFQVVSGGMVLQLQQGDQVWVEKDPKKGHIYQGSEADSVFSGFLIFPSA

binding: binds
B1: recombinant C1-INH (protein, UniProt P05155 23-500, looked up)
chain: NPNATSSSSQDPESLQDRGEGKVATTVISKMLFVEPILEVSSLPTTNSTTNSATKITANTTDEPTTQPTTEPTTQPTIQPTQPTTQLPTDSPTQPTTGSFCPGPVTLCSDLESHSTEAVLGDALVDFSLKLYHAFSAMKKVETNMAFSPFSIASLLTQVLLGAGENTKTNLESILSYPKDFTCVHQALKGFTTKGVTSVSQIFHSPDLAIRDTFVNASRTLYSSSPRVLSNNSDANLELINTWVAKNTNNKISRLLDSLPSDTRLVLLNAIYLSAKWKTTFDPKKTRMEPFHFKNSVIKVPMMNSKKYPVAHFIDQTLKAKVGQLQLSHNLSLVILVPQNLKHRLEDMEQALSPSVFKAIMEKLEMSKFQPTLLTLPRIKVTTSQDMLSIMEKLEFFDFSYDLNLCGLTEDPDLQVSAMQHQTVLELTETGVEAAAASAISVARTLLVFEVQQPFLFVLWDQQHKFPVFMGRVYDPRA

— patent publication US20160130324A1
